Article doi:10.1101/055285

Target: T1, SPTLC1, taken as the GFP11-tagged bait of the SPOTS pull-down (human) (UniProt O15269)
T1 sequence: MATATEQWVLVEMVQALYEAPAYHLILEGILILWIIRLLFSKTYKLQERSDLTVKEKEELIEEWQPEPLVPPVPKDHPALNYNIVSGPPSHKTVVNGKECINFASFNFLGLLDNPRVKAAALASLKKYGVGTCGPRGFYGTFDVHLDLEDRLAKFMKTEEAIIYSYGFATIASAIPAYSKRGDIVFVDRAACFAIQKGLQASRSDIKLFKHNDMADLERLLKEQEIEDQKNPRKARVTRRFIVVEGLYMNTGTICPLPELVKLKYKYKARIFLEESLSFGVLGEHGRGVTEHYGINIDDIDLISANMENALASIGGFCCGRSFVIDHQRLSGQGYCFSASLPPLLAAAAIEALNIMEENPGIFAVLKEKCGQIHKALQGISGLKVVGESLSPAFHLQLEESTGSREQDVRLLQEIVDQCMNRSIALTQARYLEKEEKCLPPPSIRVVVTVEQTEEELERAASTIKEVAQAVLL
Assay: co-IP

binding: binds
Substance: ORMDL (human (endogenous in 293T))

Results are given in words; binding and its absence hold for the method and conditions named. In cells and extracts the contact can be indirect. Binding can be weak; no strength is given. Sequences can lack the tags named with a protein.
